# Source: PMC6693180
# Protein sequences, listed by entry. Tags and fused reporters are not part of them.
# UniProt Q9NZJ0: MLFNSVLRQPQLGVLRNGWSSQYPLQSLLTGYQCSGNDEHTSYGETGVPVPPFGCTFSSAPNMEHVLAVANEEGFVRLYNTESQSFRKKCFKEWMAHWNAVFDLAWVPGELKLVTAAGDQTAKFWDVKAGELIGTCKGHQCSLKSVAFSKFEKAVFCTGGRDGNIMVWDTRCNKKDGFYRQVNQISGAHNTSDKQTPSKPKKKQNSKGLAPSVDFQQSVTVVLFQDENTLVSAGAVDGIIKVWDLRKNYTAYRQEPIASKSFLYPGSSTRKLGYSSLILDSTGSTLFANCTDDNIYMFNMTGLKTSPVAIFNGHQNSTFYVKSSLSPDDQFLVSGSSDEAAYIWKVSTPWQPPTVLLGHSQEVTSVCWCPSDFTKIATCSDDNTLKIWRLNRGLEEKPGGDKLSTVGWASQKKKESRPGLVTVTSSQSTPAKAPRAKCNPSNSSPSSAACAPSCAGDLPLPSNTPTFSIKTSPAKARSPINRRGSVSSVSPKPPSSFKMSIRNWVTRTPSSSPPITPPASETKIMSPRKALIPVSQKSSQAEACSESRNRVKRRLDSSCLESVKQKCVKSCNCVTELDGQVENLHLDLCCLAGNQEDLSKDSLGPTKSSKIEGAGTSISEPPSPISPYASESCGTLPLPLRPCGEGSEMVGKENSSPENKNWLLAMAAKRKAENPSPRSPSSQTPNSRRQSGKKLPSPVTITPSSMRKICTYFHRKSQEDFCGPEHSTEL
# B1: Programmed cell death 4 (PDCD4) (protein, UniProt Q53EL6 1-469)
# chain: MDVENEQILNVNPADPDNLSDSLFSGDEENAGTEEIKNEINGNWISASSINEARINAKAKRRLRKNSSRDSGRGDSVSDSGSDALRSGLTVPTSPKGRLLDRRSRSGKGRGLPKKGGAGGKGVWGTPGQVYDVEEVDVKDPNYDDDQENCVYETVVLPLDERAFEKTLTPIIQEYFEHGDTNEVAEMLRDLNLGEMKSGVPVLAVSLALEGKASHREMTSKLLSDLCGTVMSTTDVEKSFDKLLKDLPELALDTPRAPQLVGQFIARAVGDGILCNTYIDSYKGTVDCVQARAALDKATVLLSMSKGGKRKDSVWGSGGGQQSVNHLVKEIDMLLKEYLLSGDISEAEHCLKELEVPHFHHELVYEAIIMVLESTGESTFKMILDLLKSLWKSSTITVDQMKRGYERIYNEIPDINLDVPHSYSVLERFVEECFQAGIISKQLRDLCPSRGRKRFVSEGDGGRLKPESY
# Target: Flag-DTL (human) (UniProt Q9NZJ0)
# Assay: affinity purification with mass spectrometry; 293T lysate with Flag-DTL (weak lysis buffer) on Flag magnetic affinity resin; SDS-PAGE, Coomassie-stained bands excised and analysed by mass spectrometry
binder,measurement,value
B1,binding,binds

# No constants are given. Whether binding was seen depends on the method and setting. Binding seen in cells or lysates may run through a third protein. Here binding means that the protein was enriched with, or labelled near, the bait; the list need not be complete.
